± gives the standard deviation. This is a selection; strong and weak results do not stand in their true shares. Many entries were measured with a wide error.
System: MIWI (PIWIL1) piRISC loaded with piRNA #1 (30 nt)
Assay: pre-steady-state target cleavage rate (min^-1); MIWI and MILI are mouse PIWI proteins and EfPiwi is from a freshwater sponge; tags in brackets are library labels; higher = faster piRNA-guided slicing of the target
Settings: guide: piRNA #1 5'p-UGAGGUAGUAGGUUGUAUAGUAUCCAGAGG; auxiliary factor: 500 nM mouse GTSF1
Summary of the method: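 Cleave-'n-Seq measured uncleaved targets by sequencing after a transcribed, DNA-blocked target RNA library […] was mixed with 1 nM active affinity-purified piRISC holding one synthetic guide, with or without 500 nM GTSF1 partner protein, at 33 °C in HEPES–potassium acetate buffer for 0–8 or 0–960 min. Counts were normalised to depth and to weakly complementary targets, three trials were pooled, and k3 was capped at 0.0001 min^-1. A burst-and-steady-state fit gave the pre-steady-state cleavage rate.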
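Note: 1 nM active piRISC with 0.1 nM target library at 33 °C single turnover.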

| Sequence | pre-steady-state target cleavage rate |
| --- | --- |
| GGAGACCUAUGAUUACAACCUACUACUCUCA | 0.00131 ± 0.0063 |
| GGAGACCUAUGAAUACUACCUACUACCACA | 0.000179 ± 0.017 |
| GGACUGGAUACUAUACAACCAUACUACCUCA | 0.00173 ± 0.0058 |
| GGACUGGAUACUAUAGAACCUACAACCUCA | 0.00257 ± 0.0029 |
| GGAGACCUAUGAUAUCAACCUACUUACCUCA | 0.000291 ± 0.0077 |
| GGUGUGGUUACUAUACAACCUACUACCUCA | 1.54 ± 0.097 |
| GGAGACCUAUGAUAUGUUGCUACUAGGACA | 0.000188 ± 0.018 |
| GGACUGGAUACUAUCCAACCUACUACCUCA | 1.76 ± 0.11 |
| GCUCUGGAUACUAUUCAACCUACUACCACA | 1.9 ± 0.16 |
| GGAGACCAUACUUACAACCUACUACCUCA | 0.269 ± 0.028 |
| CCUCUCCAUACUAUACAACCUACUACCUCA | 2.04 ± 0.12 |
| CCUCUGGAUACUAUACAACCUACUACCUCU [g2:g30:cont:t1U] | 2.36 ± 0.14 |
| GGUCUCGAUACAAUACAACCUACUACCUCA | 1.77 ± 0.12 |
| GGAGACCUAUCUAUACAACCUUACUACCUCA | 0.000716 ± 0.0067 |
| CCUCUGCUUACUAUACAACCUACUACCUCA | 2.19 ± 0.15 |
| GCUUGGAUACUAUACAACCUACUACCUCA | 1.87 ± 0.12 |
| GCUCUGGAUACUAUACAACCUAUCUACCUCA | 0.356 ± 0.028 |
| GGAGACCUAUGAUAACAACCUACUACCUCC [g2:g16:cont:t1C] | 0.00111 ± 0.0037 |
| GCUCUGGAUACUAUACAGACCUACUACCUCA | 0.00291 ± 0.0046 |
| CCUCAGGAUACUAUACAACCUACUACCACA | 2.43 ± 0.17 |
| GGAGACCUAUGUAUCAACCUACUACCUCA | 0.00173 ± 0.0024 |
| GGAGUGGAUACUAUCACAACCUACUACCUCA | 1.49 ± 0.12 |
| GGAGACCUAUGAAUACAUCCUACUACGUCA | 0.000404 ± 0.0046 |

2 successive records out of the list so far, quoted:

| Sequence | pre-steady-state target cleavage rate |
| --- | --- |
| GCUCUGGAUACUAUACAACCUAUCUACCUCA | 0.356 ± 0.028 |
| GGAGACCUAUGAUAACAACCUACUACCUCC [g2:g16:cont:t1C] | 0.00111 ± 0.0037 |

— the supplement of paper PMC10338343
